Results as given in patent publication US12134640B2, “Polypeptides and medical uses thereof” (priority 2016, dated 2024).
Not every detail of the peptide structures is certain; ends, links or a residue may be inferred. No end group written: not given here.

What was measured:
[1] = system: P. aeruginosa; assay: Propidium iodide uptake assay; type: cell-based, Pseudomonas aeruginosa; conditions: salt condition, 30 μM
[2] = system: S. pyogenes, S. aureus, E. coli and P. aeruginosa; assay: Bactericidal assay (viable count), statements on the whole panel; type: cell-based
Method: Bacteria were grown to mid-logarithmic phase (OD620≈0.4) in THB medium at 37° C., with 5% CO2. The bacterial solution was subsequently washed and adjusted to 2×10^7 cfu/ml in salt buffer (10 mM Tris-HCl, 150 mM NaCl supplemented with 5 mM glucose; pH 7.4) (both from Sigma-Aldrich). Various concentrations of peptides (0.3, 0.6, 3, 6, 30 and 60 μM) were incubated with bacteria in salt buffer with or without 20% human plasma. Bacteria incubated in only salt buffer with or without plasma were used as negative controls. Samples with LL-37 served as positive controls. The samples were incubated for 2 h at 37° C. with 5% CO2. To quantify the bactericidal activity, serial dilutions of the incubation mixtures were plated on THB agar plates, followed by incubation at 37° C. with 5% CO2 overnight, and the number of cfu were determined. Experiments were performed in triplicate. Hundred percent survival was defined as total survival of bacteria in the same buffer and under the same condition in the absence of peptides.

[3] = system: HaCaT cells; assay: In vitro wound healing assay (scratch); type: cell-based; conditions: 10 μg/ml, 24 h, without serum
[4] = system: P. aeruginosa; assay: Scanning electron microscopy of peptide-treated bacteria; type: cell-based, Pseudomonas aeruginosa; conditions: 30 μM, 2 h
[5] = system: P. aeruginosa; assay: Bactericidal assay (viable count) in salt buffer with or without plasma; type: cell-based, Pseudomonas aeruginosa PAO1; conditions: salt buffer with 20% human plasma
[6] = system: S. pyogenes; assay: as above; type: cell-based, Streptococcus pyogenes strain AP1; conditions: salt buffer with 20% human plasma
[7] = system: P. aeruginosa; assay: Transmission electron microscopy, gold-labelled peptides binding to bacterial surface; set-up: species or system Pseudomonas aeruginosa; conditions: 2 μM peptide conjugated with 10 nm colloidal gold, 2 h at 37° C.
[8] = Membrane permeabilization assay (carboxyfluorescein efflux from liposomes); conditions: 10 mM Tris pH 7.4, 37° C., 45 min
Method: Dry lipid films of E. coli polar lipid extract were formed in round-bottom flask walls by dissolving lipids in chloroform, followed by evaporation under N2-flow and subsequently placed in vacuum overnight. Lipid films were re-suspended either by 30 min stirring (E. coli), at 55° C. in an aqueous solution of 100 mM 5(6)-carboxyfluorescein in 10 mM Tris (set to pH 7.4 at 37° C.). Suspensions were then vortexed followed by repeated extrusion through a 100 nm polycarbonate membrane mounted in a LipoFast mini-extruder (Avanti Polar Lipids) in order to reduce multilamellar structures and polydispersity. Un-trapped carboxyfluorescein was removed by gel filtration on Sephadex PD-10 columns (GE Healthcare, Little Chalfont, UK). Membrane permeability was measured by monitoring carboxyfluorescein efflux from the liposomes to the external low concentration environment, resulting in loss of self-quenching and an increased fluorescence signal with excitation and emission wavelengths of 492 and 517 nm, respectively. Fluorescence was measured with a Varioskan Flash Multimode Reader (Thermo Fisher Scientific, Waltham, MA) in black Nunc Delta Surface 96-well plate (Thermo Fisher Scientific, Roskilde, DK). […] The effects of each peptide concentration on the liposome systems were monitored for 45 min, at which point the initial leakage had largely subsided. […]

[9] = salt buffer with or without 20% human plasma, 0.3-60 μM

Row | Sequence | membrane permeabilization (propidium iodide uptake) [1] | antibacterial activity (viable count) [2, 9] | antibacterial activity (viable count) ([2]; salt conditions (150 mM NaCl, pH 7.4)) | wound closure (cell migration) [3] | membrane damage (scanning electron microscopy) ([4]; plasma) | membrane damage (scanning electron microscopy) ([4]; presence of salt) | antibacterial activity (viable count) [5] | antibacterial activity (viable count) [6] | adherence to the bacterial surface [7] | membrane leakage (release of carboxyfluorescein) [8]
1 | SFVARNTFKRVRNGFLMRKVAVFFSNTPTRASP [SFV33] | significant degree of membrane permeabilization | dose-dependent | almost similar effects as for LL-37 | did not promote wound healing | caused disruption of bacteria, leading to disintegration and ejection of cytoplasmic components | caused disruption of bacteria, leading to disintegration and ejection of cytoplasmic components | very efficiently | slightly reduced | able to adhere to the bacterial surface | 
2 | DVNVFAIGVEDADEGALKEIASEPLNMHMFNL [DVN32] |  | did not exert antibacterial activity |  |  |  | did not show any membrane damage |  |  | bound to the bacterial surfaces | except DVN32
